Reference: patent US20190119397A1 (ZIELBIO, published 2019)
Results are given in words; binding and its absence hold for the method and conditions named. Some binding calls cover weakened binding; strength is not graded here.

Sequences of proteins named here, by UniProt entry; tags and fusion partners are left off. A change or cut given only in a name is not applied to a line headed by its entry.
UniProt Q15149: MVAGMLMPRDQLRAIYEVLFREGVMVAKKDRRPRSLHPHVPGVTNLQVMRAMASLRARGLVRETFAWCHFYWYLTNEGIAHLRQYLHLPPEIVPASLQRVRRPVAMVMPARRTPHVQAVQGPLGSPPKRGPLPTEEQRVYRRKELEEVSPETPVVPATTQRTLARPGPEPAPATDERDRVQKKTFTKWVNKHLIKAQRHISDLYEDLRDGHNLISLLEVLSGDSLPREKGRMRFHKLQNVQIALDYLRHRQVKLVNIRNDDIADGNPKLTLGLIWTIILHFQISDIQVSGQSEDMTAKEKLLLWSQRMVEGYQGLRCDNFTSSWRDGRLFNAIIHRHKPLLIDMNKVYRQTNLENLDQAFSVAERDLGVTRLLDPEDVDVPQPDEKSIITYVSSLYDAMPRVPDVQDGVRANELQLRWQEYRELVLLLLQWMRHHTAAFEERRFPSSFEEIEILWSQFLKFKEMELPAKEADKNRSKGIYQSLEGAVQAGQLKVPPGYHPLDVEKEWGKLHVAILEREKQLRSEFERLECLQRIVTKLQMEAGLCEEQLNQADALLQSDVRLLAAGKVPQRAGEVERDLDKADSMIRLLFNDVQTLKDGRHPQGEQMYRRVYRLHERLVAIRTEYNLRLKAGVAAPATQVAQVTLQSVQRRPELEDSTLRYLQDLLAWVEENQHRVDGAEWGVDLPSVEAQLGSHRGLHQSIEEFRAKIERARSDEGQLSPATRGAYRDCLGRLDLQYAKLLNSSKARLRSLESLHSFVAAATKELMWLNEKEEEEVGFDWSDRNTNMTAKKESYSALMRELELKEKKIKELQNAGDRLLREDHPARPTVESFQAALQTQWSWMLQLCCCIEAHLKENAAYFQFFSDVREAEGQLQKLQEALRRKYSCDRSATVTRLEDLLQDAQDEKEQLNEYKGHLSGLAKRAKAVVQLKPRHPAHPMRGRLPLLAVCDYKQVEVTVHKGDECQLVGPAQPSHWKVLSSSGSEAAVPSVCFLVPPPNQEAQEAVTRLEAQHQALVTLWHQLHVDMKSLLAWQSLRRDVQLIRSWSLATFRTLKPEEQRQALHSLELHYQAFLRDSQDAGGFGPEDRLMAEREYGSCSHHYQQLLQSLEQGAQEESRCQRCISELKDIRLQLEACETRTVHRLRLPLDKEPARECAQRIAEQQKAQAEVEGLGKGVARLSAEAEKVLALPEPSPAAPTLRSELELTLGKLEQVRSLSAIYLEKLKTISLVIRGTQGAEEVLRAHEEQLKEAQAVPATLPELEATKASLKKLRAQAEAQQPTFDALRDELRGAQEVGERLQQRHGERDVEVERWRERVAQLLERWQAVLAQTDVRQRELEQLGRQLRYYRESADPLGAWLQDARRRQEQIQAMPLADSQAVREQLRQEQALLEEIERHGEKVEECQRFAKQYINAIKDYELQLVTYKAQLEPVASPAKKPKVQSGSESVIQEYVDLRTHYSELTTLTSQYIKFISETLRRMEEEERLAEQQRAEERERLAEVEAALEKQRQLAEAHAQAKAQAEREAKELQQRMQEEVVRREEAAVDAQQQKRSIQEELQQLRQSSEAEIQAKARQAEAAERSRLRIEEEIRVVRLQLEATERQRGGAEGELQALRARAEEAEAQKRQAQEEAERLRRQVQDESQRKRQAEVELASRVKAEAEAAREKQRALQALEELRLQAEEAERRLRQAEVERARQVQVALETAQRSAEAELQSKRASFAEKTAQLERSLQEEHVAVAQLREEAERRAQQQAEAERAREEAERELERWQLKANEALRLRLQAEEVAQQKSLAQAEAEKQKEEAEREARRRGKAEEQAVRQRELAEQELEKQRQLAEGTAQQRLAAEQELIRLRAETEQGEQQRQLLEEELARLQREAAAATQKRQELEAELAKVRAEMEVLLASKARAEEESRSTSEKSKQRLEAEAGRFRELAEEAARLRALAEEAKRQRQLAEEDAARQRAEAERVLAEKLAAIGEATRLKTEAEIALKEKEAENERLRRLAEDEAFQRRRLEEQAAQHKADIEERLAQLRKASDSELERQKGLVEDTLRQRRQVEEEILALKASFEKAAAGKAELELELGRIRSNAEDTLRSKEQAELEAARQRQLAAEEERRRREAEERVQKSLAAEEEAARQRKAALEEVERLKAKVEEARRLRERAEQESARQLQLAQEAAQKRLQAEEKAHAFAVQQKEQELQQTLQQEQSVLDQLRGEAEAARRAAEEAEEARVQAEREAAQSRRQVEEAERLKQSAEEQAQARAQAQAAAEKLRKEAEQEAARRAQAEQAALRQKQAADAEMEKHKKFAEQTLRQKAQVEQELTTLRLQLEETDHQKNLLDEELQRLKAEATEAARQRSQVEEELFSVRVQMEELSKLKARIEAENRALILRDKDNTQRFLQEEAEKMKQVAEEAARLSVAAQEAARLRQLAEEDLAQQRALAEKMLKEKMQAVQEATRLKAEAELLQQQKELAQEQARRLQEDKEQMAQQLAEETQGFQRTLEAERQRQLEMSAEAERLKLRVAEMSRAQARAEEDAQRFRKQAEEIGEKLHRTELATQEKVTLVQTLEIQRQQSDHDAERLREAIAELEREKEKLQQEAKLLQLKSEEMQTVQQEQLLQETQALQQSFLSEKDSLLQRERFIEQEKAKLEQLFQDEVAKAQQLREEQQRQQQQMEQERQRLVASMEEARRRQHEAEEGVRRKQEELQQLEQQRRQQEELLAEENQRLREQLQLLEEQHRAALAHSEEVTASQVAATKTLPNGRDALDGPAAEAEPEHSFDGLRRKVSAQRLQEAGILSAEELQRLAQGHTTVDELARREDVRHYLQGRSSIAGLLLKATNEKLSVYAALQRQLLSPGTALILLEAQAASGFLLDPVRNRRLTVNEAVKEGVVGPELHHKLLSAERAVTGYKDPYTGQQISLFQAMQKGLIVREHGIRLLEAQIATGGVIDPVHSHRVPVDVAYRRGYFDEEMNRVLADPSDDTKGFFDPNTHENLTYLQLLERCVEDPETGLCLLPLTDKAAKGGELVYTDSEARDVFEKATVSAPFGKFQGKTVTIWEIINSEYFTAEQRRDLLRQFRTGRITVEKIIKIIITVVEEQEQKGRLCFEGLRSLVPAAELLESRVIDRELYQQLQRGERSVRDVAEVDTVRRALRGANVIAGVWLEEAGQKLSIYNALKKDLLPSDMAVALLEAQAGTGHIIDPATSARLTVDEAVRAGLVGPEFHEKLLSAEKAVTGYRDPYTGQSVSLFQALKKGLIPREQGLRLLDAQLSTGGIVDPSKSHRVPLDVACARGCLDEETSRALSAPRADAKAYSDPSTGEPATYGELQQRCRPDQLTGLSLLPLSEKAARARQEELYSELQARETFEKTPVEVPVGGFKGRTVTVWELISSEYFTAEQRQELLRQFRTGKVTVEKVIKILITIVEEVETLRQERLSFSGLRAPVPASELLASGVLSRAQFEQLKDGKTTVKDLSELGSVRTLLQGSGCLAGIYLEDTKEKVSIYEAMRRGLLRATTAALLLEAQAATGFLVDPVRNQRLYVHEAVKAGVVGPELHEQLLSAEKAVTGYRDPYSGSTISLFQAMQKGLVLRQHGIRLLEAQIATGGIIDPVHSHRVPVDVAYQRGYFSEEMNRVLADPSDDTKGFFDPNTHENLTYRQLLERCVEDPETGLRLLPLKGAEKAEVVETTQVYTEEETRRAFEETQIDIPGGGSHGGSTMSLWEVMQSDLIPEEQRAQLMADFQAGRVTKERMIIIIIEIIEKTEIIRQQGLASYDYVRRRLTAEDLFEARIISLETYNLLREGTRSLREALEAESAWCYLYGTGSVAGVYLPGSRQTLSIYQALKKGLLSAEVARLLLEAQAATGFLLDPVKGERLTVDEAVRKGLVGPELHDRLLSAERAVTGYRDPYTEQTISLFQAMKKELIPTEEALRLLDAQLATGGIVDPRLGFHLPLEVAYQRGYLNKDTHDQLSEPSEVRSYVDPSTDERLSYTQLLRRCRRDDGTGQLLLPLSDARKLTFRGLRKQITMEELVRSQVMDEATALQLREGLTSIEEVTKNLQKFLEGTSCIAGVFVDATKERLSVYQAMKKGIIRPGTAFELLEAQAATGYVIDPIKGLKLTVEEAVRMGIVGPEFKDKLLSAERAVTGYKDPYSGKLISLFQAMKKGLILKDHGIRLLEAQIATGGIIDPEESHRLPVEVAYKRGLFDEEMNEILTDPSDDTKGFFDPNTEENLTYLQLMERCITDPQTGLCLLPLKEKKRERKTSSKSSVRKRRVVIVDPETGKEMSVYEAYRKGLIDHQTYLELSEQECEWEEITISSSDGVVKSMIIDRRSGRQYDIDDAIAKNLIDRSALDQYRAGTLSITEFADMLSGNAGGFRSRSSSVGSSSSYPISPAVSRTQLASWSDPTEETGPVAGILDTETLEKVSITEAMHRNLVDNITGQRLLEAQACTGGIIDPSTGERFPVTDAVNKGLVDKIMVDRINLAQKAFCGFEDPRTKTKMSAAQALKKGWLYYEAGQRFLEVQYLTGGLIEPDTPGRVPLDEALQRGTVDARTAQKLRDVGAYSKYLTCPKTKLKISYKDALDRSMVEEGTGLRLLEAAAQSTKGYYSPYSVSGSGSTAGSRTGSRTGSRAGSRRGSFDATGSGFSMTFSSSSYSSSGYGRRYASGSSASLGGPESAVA

Key:
[1] = target: human recombinant Sec 8 (plectin-1 Section 8) (human) (UniProt Q15149); experiment: ELISA of hybridoma supernatants
[2] = target: T1, plectin-1 on the surface of cancer cells (Homo sapiens, UniProt Q15149 1-4684); experiment: in vitro validation on YapC- or HPDE-coated plates (FIG. 1)
[3] = target: T1, plectin-1 on the surface of cancer cells; experiment: in vitro binding assay on cells
[4] = target: T1, plectin-1 on the surface of cancer cells; experiment: in vitro binding assay on L3.6pl cells (FIG. 3B)

Measured: binding

B1: PAb2 (antibody, mouse IgG1, kappa, V domains shown)
VH: EVQLVESGGDLVKPGGSLKLSCAASGFTFSRYGMSWVRQTPDKRLEWVATISIGGTYTYYPDSMKGRFTISRDNAKNTLYLQMSSLKSEDTAMYYCARRGYGNYSYYGMDYWGQGTSVTVSS
VL: DIVMTQAAFSNPVTLGTSASISCRSSKSLLHSNGITYLYWYLQKPGQSPQLLIYQMSNLASGVPDRFSSSGSGTDFTLRISRVEAEDVGVYYCAQNLELPLTFGAGTKLELKR
binds: [1] | [2]

B2: PAb1 (antibody, mouse IgG2b, kappa, V domains shown)
VH: QIQLVQSGPELKKPGETVKISCKASGYTFTDYSMHWVKQAPGKGLKWMGWINTETGEPTYADDFKGRFAFSLETSASTAYLQINNLKNEDTATYFCAPGGFAYWGQGTLVTVSA
VL: DIVMTQAAPSVPVTPGESVSISCRSSKSLLHSNGNTYLYWFLQRPGQSPQLLIYRMSNLASGVPDRFSGSGSGTAFTLRISRVEAEDVGVYYCMQHLEYPLTFGAGTKLELKR
notes: Mouse hybridoma monoclonal antibody; also called Plectin-1 mAb; Plectin-1mAb
binds: [1] | [3] | [4] | [2]
